Drug screen on melanoma cell lines: apoptosis marker

From a melanoma drug combination screen (doi:10.1371/journal.pone.0140310); values rounded.

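The test systems are human melanoma cell lines, treated with two drugs together for 72 h and then stained and imaged. Values are the share of nuclei positive for cleaved PARP as a percentage of the same share in the DMSO control: 100 is the control level, higher means more apoptosis. Every drug was used at one fixed concentration, the higher of two screened. These are primary screening values without error estimates. Basal and induced levels differ widely between cell lines.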
Only some of the drugs and lines screened are listed, without regard to their results.

First drug in all entries: GW9662, 10 µM, O=C(Nc1ccccc1)c1cc([N+](=O)[O-])ccc1Cl

Drugs:
JZL184 (5 µM): O=C(Oc1ccc([N+](=O)[O-])cc1)N1CCC(C(O)(c2ccc3c(c2)OCO3)c2ccc3c(c2)OCO3)CC1
KU-55933 (5 µM): O=c1cc(-c2cccc3c2Sc2ccccc2S3)oc(N2CCOCC2)c1
tozasertib (0.03 µM): Cc1cc(Nc2cc(N3CCN(C)CC3)nc(Sc3ccc(NC(=O)C4CC4)cc3)n2)n[nH]1
T0901317 (7 µM): O=S(=O)(c1ccccc1)N(CC(F)(F)F)c1ccc(C(O)(C(F)(F)F)C(F)(F)F)cc1
erlotinib (4 µM): C#Cc1cccc(Nc2ncnc3cc(OCCOC)c(OCCOC)cc23)c1
darinaparsin (2 µM): C[As](C)SC[C@H](NC(=O)CC[C@H](N)C(=O)O)C(=O)NCC(=O)O
VX-702 (2 µM): NC(=O)c1ccc(N(C(N)=O)c2c(F)cccc2F)nc1-c1ccc(F)cc1F
embelin (6 µM): CCCCCCCCCCCC1=C(O)C(=O)C=C(O)C1=O
GW0742 (10 µM): Cc1cc(SCc2sc(-c3ccc(C(F)(F)F)c(F)c3)nc2C)ccc1OCC(=O)O
NVP-TAE684 (0.4 µM): COc1cc(N2CCC(N3CCN(C)CC3)CC2)ccc1Nc1ncc(Cl)c(Nc2ccccc2S(=O)(=O)C(C)C)n1
CX-4945 (2 µM): O=C(O)c1ccc2c(c1)nc(Nc1cccc(Cl)c1)c1ccncc12
OSU-03012 (5 µM): NCC(=O)Nc1ccc(-n2nc(C(F)(F)F)cc2-c2ccc3c(ccc4ccccc43)c2)cc1
SU6656 (2 µM): CN(C)S(=O)(=O)c1ccc2c(c1)/C(=C/c1cc3c([nH]1)CCCC3)C(=O)N2
A-769662 (10 µM): N#Cc1c(O)c2c(-c3ccc(-c4ccccc4O)cc3)csc2[nH]c1=O
bortezomib (0.005 µM): CC(C)C[C@H](NC(=O)[C@H](Cc1ccccc1)NC(=O)c1cnccn1)B(O)O
sunitinib (2 µM): CCN(CC)CCNC(=O)c1c(C)[nH]c(/C=C2\C(=O)Nc3ccc(F)cc32)c1C
gemcitabine (0.002 µM): Nc1ccn([C@@H]2O[C@H](CO)[C@@H](O)C2(F)F)c(=O)n1
docetaxel (0.0005 µM): CC(=O)O[C@@]12CO[C@@H]1C[C@H](O)[C@@]1(C)C(=O)[C@H](O)C3=C(C)[C@@H](OC(=O)[C@H](O)[C@@H](NC(=O)OC(C)(C)C)c4ccccc4)C[C@@](O)([C@@H](OC(=O)c4ccccc4)[C@H]21)C3(C)C
OSI-906 (2 µM): C[C@]1(O)C[C@@H](c2nc(-c3ccc4ccc(-c5ccccc5)nc4c3)c3c(N)nccn32)C1
crizotinib (1 µM): C[C@@H](Oc1cc(-c2cnn(C3CCNCC3)c2)cnc1N)c1c(Cl)ccc(F)c1Cl
selumetinib (0.075 µM): Cn1cnc2c(F)c(Nc3ccc(Br)cc3Cl)c(C(=O)NOCCO)cc21
CHIR-265 (0.4 µM): Cn1c(Nc2ccc(C(F)(F)F)cc2)nc2cc(Oc3ccnc(-c4ncc(C(F)(F)F)[nH]4)c3)ccc21
ZM336372 (10 µM): Cc1ccc(NC(=O)c2cccc(N(C)C)c2)cc1NC(=O)c1ccc(O)cc1
KU-0063794 (0.1 µM): COc1ccc(-c2ccc3c(N4CCOCC4)nc(N4C[C@@H](C)O[C@@H](C)C4)nc3n2)cc1CO
L-779450 (1 µM): Oc1cc(-c2nc(-c3ccccc3)[nH]c2-c2ccncc2)ccc1Cl
palbociclib (0.2 µM): CC(=O)c1c(C)c2cnc(Nc3ccc(N4CCNCC4)cn3)nc2n(C2CCCC2)c1=O
IMD-0354 (0.08 µM): O=C(Nc1cc(C(F)(F)F)cc(C(F)(F)F)c1)c1cc(Cl)ccc1O

| # | Second drug | WM3526 | RPMI-7951 | SK-MEL-30 | G-361 | C32 | SK-MEL-28 | WM1716 | A2058 | UACC-257 | MEL-HO |
|---|---|---|---|---|---|---|---|---|---|---|---|
| 1 | L-779450 | 344 | 97.6 | 184 | 240 | 119 | 152 | 154 | 75.1 | 85.6 | 104 |
| 2 | tozasertib | 89.0 | 115 | 189 | 35.4 | 215 | 202 | 69.0 | 180 | 29.5 | 117 |
| 3 | T0901317 | 123 | 70.3 | 237 | 45.0 | 102 | 154 | 80.7 | 58.6 | 61.1 | 55.5 |
| 4 | bortezomib | 1550 | 405 | 592 | 11200 | 406 | 276 | 8210 | 2120 | 100 | 293 |
| 5 | crizotinib | 145 | 139 | 154 | 124 | 86.6 | 125 | 60.2 | 90.6 | 74.0 | 97.5 |
| 6 | CX-4945 | 698 | 99.6 | 144 | 163 | 92.1 | 173 | 96.9 | 347 | 118 | 81.5 |
| 7 | docetaxel | 1490 | 129 | 463 | 903 | 112 | 1960 | 563 | 2200 | 62.5 | 188 |
| 8 | CHIR-265 | 622 | 145 | 184 | 577 | 122 | 207 | 267 | 135 | 50.1 | 75.2 |
| 9 | KU-0063794 | 79.3 | 173 | 166 | 197 | 112 | 257 | 20.6 | 150 | 22.7 | 57.6 |
| 10 | embelin | 108 | 35.3 | 99.9 | 38.2 | 75.9 | 115 | 53.4 | 115 | 22.2 | 70.6 |
| 11 | GW0742 | 85.6 | 157 | 115 | 28.2 | 92.0 | 71.8 | 16.5 | 125 | 80.3 | 105 |
| 12 | OSI-906 | 93.2 | 203 | 130 | 132 | 85.7 | 105 | 118 | 55.7 | 85.3 | 205 |
| 13 | SU6656 | 239 | 184 | 216 | 146 | 137 | 1200 | 99.1 | 319 | 58.9 | 31.0 |
| 14 | NVP-TAE684 | 149 | 111 | 111 | 155 | 132 | 87.9 | 72.1 | 192 | 36.5 | 30.1 |
| 15 | gemcitabine | 129 | 214 | 190 | 381 | 175 | 416 | 86.6 | 76.7 | 73.2 | 124 |
| 16 | erlotinib | 169 | 109 | 130 | 408 | 89.1 | 196 | 53.5 | 169 | 25.6 | 62.1 |
| 17 | KU-55933 | 83.0 | 270 | 42.8 | 157 | 228 | 254 | 5040 | 183 | 35.9 | 118 |
| 18 | selumetinib | 321 | 155 | 274 | 288 | 107 | 219 | 84.8 | 119 | 49.7 | 66.6 |
| 19 | sunitinib | 150 | 164 | 309 | 147 | 91.2 | 96.2 | 41.6 | 162 | 48.3 | 73.8 |
| 20 | VX-702 | 136 | 64.4 | 161 | 241 | 172 | 221 | 46.8 | 120 | 70.7 | 86.4 |
| 21 | A-769662 | 96.6 | 71.4 | 38.1 | 37.1 | 108 | 137 | 80.4 | 148 | 73.2 | 23.4 |
| 22 | palbociclib | 126 | 64.5 | 106 | 159 | 113 | 101 | 148 | 121 | 79.2 | 110 |
| 23 | OSU-03012 | 190 | 44.9 | 364 | 90.9 | 215 | 596 | 43.7 | 155 | 31.9 | 112 |
| 24 | JZL184 | 54.0 | 72.1 | 139 | 32.1 | 165 | 330 | 48.0 | 120 | 35.9 | 91.8 |
| 25 | ZM336372 | 148 | 389 | 116 | 76.6 | 216 | 185 | 69.3 | 119 | 139 | 68.2 |
| 26 | IMD-0354 | 116 | 111 | 215 | 142 | 79.3 | 44.0 | 172 | 134 | 119 | 93.2 |
| 27 | darinaparsin | 292 | 67.4 | 213 | 115 | 89.4 | 149 | 65.2 | 184 | 66.6 | 56.5 |

Some entries from above, unchanged:

Second drug	WM3526	RPMI-7951	SK-MEL-30	G-361	C32	SK-MEL-28	WM1716	A2058	UACC-257	MEL-HO
KU-0063794	79.3	173	166	197	112	257	20.6	150	22.7	57.6
docetaxel	1490	129	463	903	112	1960	563	2200	62.5	188